The list shows a part of the results.
tested on: T1, CTL2-GFP (C. trachomatis L2/434/Bu, GFP-expressing); set-up: species or system HeLa; Intracellular C. trachomatis growth in HeLa cells, bulk GFP fluorescence relative to DMSO; conditions: bulk GFP, single well; 28.5 h, 10 µM; inhibitor
T1 construct: L2/434/Bu, GFP-expressing

Compound | % of control remaining [%]
O=C(O)c1ccccc1-c1ccc(-c2cc(C(=O)O)c3cc(Cl)ccc3n2)o1 [CBK268699] | 124.243
O=C(Cn1nnc2ccccc2c1=O)NC(Cc1ccccc1)c1ccccc1 (stereo not shown) [CBK296933] | 172.452
CC(Oc1cccc2ccccc12)C(=S)N(C)c1ccccc1 (stereo not shown) [CBK016158] | 49.663
c1ccc2nc(N3CCCC3)c(OC3CCNC3)nc2c1 (stereo not shown) [CBK115288] | 119.385
CCN(Cc1ccccc1)C(=O)NCCCN1CCN(C)CC1 [CBK155212] | 108.28
O=C1C[C@@H]2CCN(C(=O)NC3CCCCC3)C[C@@H]2CCN1CCN1CCNC1=O [CBK288796] | 126.779
Cc1c(F)cccc1CN(CCCN)C(=O)Nc1ccccc1C(C)(C)C [CBK034699C] | 160.147
COc1ccc(/C=C2\S/C(=N\Cc3ccccc3)N(Cc3ccccc3)C2=O)cc1C(=O)O [CBK262715] | 113.847
O=C(Nc1ccc(S(=O)(=O)N2CCCCCC2)cc1)c1nc2ncccn2n1 [CBK266155] | 154.701
O=C(c1csnn1)N1Cc2ccccc2C1 [CBK200325] | 131.819
Cc1ccc(SCCN2CCN(C)CC2)cc1 [CBK269631C] | 123.615
CC1CCc2n[nH]c(C(=O)N3CCc4ncc(Cl)cc4C3)c2C1 (stereo not shown) [CBK284874] | 151.418
Cc1cccc(CC(=O)N2CCC(Cc3cccc(-c4cccs4)c3)(C(N)=O)CC2)c1 [CBK285752] | 171.731
CN1CCOCC(CNC(=O)c2ccc(-c3cnc(N)nc3)cc2)C1 (stereo not shown) [CBK307119] | 130.669
Cc1ccc(C2CCC(C(=O)O)C(C(=O)O)C2)cc1C (stereo not shown) [CBK287184] | 114.71
COc1ccc(CCN(C)Cc2ccccn2)cc1OC [CBK261912] | 100
CCOc1ccc(-c2cn(S(=O)(=O)c3cccc4nsnc34)nc2N)cc1 [CBK267883] | 80.0568
CC(Cn1cncc1-c1cnn(C)c1)Oc1ccccc1Cl (stereo not shown) [CBK281737] | 115.354
Cc1cc(C)c(NC(=O)CSc2nnc(-c3cccnc3)s2)c([N+](=O)[O-])c1 [CBK268929] | 134.318
O=C1CCCc2nccc(-c3ccc(Cl)cc3)c21 [CBK287870] | 121.907
CN(Cc1ccncc1)C(=O)CCn1c(C(F)F)cc2cccnc21 [CBK285070] | 145.868
CCc1nc2ccc(C(=O)NCCN3CCNC3=O)cn2c1N(CCN(C)C)CC1CC1 [CBK145469] | 103.282

3 entries from above, ordered by count of non-hydrogen atoms, rising.
Compound | % of control remaining [%]
O=C(c1csnn1)N1Cc2ccccc2C1 [CBK200325] | 131.819
CC1CCc2n[nH]c(C(=O)N3CCc4ncc(Cl)cc4C3)c2C1 (stereo not shown) [CBK284874] | 151.418
CCc1nc2ccc(C(=O)NCCN3CCNC3=O)cn2c1N(CCN(C)C)CC1CC1 [CBK145469] | 103.282
